Assay results as given in patent publication US20090041806A1, “USE OF PRODRUGS OF GABA ANALOGS, ANTISPASTICITY AGENTS, AND PRODRUGS OF GABA B RECEPTOR AGONISTS FOR TREATING SPASTICITY” (XenoPort, Inc., priority 2007, published 2009).
Some entries share one result that the patent states for a list of compounds. At least one compound was matched to its structure with a doubt left.

Assays:
[1] = Uptake of R-baclofen following intracolonic administration of R-baclofen or R-baclofen prodrugs in cynomolgus monkeys; settings: cynomolgus monkey, 5 mg baclofen-eq/kg
[2] = Uptake of R-baclofen following oral administration of R-baclofen prodrugs to cynomolgus monkeys; format: in vivo; settings: cynomolgus monkey, oral gavage, 5 mg baclofen-eq/kg
Procedure: (5 mg baclofen-eq/kg) were administered by oral gavage to groups of four male cynomolgus monkeys as either an aqueous solution or suspension in 0.5% methylcellulose/0.1% Tween-80 respectively. […] The oral bioavailability of both prodrugs: • (sodium 4-{[(1S)-isobutanoyloxyisobutoxy]carbonylamino}-(3R)-(4-chlorophenyl)-butanoate; and • 4-{[(1S)-isobutanoyloxyisobutoxy]carbonylamino}-(3R)-(4-chlorophenyl)-butanoic acid;

[3] = Uptake of R-baclofen following intracolonic administration of R-baclofen or R-baclofen prodrugs in rats; format: in vivo; settings: rat, 10 mg baclofen equivalents per kg

SMILES	R-baclofen exposure relative to colonic administration of R-baclofen itself [1]	oral bioavailability as R-baclofen [2]	area under the baclofen plasma concentration vs. time curve (AUC) relative to colonic administration of R-baclofen itself [3] [fold]	maximum plasma concentration of R-baclofen (Cmax) relative to colonic administration of R-baclofen itself [3] [fold]
CC(C)C(=O)O[C@@H](OC(=O)NC[C@H](CC(=O)O)c1ccc(Cl)cc1)C(C)C [4-{[(1S)-isobutanoyloxyisobutoxy]carbonylamino}-(3R)-(4-chlorophenyl)-butanoic acid]	greater than 10 fold	greater than 80%	> 2	> 2
CC(=O)OC(OC(=O)NC[C@H](CC(=O)[O-])c1ccc(Cl)cc1)C(C)C.[Na+] (stereo partly drawn) [sodium 4-[(1-acetoxyisobutoxy)carbonylamino]-(3R)-(4-chlorophenyl)-butanoate]			> 2	> 2
CCCC(=O)OC(C)OC(=O)NC[C@H](CC(=O)[O-])c1ccc(Cl)cc1.[Na+] (stereo partly drawn) [sodium 4-[(1-butanoyloxyethoxy)carbonylamino]-(3R)-(4-chlorophenyl)-butanoate]			> 2	> 2
CC(OC(=O)NC[C@H](CC(=O)[O-])c1ccc(Cl)cc1)OC(=O)C(C)C.[Na+] (stereo partly drawn) [sodium 4-[(1-isobutanoyloxyethoxy)carbonylamino]-(3R)-(4-chlorophenyl)-butanoate]			> 2	> 2
